According to patent US11884747B2, “Compstatin analogs with increased solubility and improved pharmacokinetic properties” (The Trustees of the University of Pennsylvania, priority 2018, dated 2024):
Some of these results come from one statement about several compounds together.

Experiment: Residence time in the vitreous after single intravitreal injection (WES and SPR competition assay)
Type: in vivo, cynomolgus monkeys
Settings: single i.v.t. injection 0.5 mg
Protocol: To determine the residence time of mPEG(3 k)-Cp40, mPEG(1 k)-Cp40, Cp40-KK, and Cp40-KKK in the vitreous of cynomolgus macaques, these Cp40-based analogs were administered intravitreally (i.v.t.) to the animals after induction of light ketamine anesthesia (10-15 mg/kg, by intramuscular injection (i.m.)) and dilation of the pupils with tropicamide/phenylephrine ophthalmic solution (see Table 6 for study design).
For i.v.t. injection, the cynomolgus monkeys were anesthetized with a combination of ketamine (15-25 mg/kg, i.m.) and xylazine (2 mg/kg, i.m.) and the eye was cleaned with povidone-iodine solution. After application of oxybuprocaine hydrochloride solution (Benoxil® ophthalmic solution 0.4%) to the cornea as a local anesthetic, the Cp40-based analogs were administered to the animals by i.v.t. injection into either the right (G1, G3) or left (G2, G4) eye of each animal. Immediately following each injection, a single topical dose of 0.5% levofloxacin was administered. After i.v.t. injection of mPEG(3 k)-Cp40, mPEG(1 k)-Cp40, Cp40-KK, and Cp40-KKK, vitreous fluid samples (about 50 μL each) were withdrawn from Cp40-based analog-treated eyes on days 14, 28, 42, (G1, G2, G3, G4), 56, 73, 90 (G1, G2) (this was done either three times or six times). Samples were collected on ice and stored in a deep freezer (˜79.3 to −68.5° C.) until further analysis. […] Presence and concentration of the Cp40-based analogs was determined using either the simple western technology (WES, ProteinSimple, San Jose, CA), or surface plasmon resonance (SPR)-based real-time measurement of binding kinetics on a Cp40-KKK immobilized chip (see detailed methods below). Similar results with regard to the intravitreal residence time and concentration levels of the test compounds were obtained regardless of the quantification method selected.
To quantify the levels of all test compounds in vitreous samples collected at different time points following i.v.t. injection (see FIG. 15), WES analysis was performed on a WES instrument (ProteinSimple, San Jose, CA) using a 2 to 40 kDa Separation Module and Anti-Rabbit Detection Module according to the manufacturers' instructions. […] The resulting electropherograms were evaluated using the Compass software (ProteinSimple, San Jose, CA). The following criteria were used to discriminate low peptide signals from background: The peak signal-to-noise (S/N) ratio given by the software must be ≥10, and the peak height/baseline ratio (calculated manually from the peak height and baseline values given by the software) must be equal to or greater than 3. […] Shown in FIG. 15 is a representative standard curve generated using the WES system and bands obtained upon running pre-determined amounts of purified peptide spiked into rabbit vitreous samples. […]

Compound	intravitreal residence time
CC[C@H](C)[C@H](NC(=O)[C@H](N)Cc1ccc(O)cc1)C(=O)N[C@H]1CSSC[C@@H](C(=O)N(C)[C@H](C(=O)N[C@@H](CCCCN)C(=O)N[C@@H](CCCCN)C(=O)N[C@@H](CCCCN)C(N)=O)[C@@H](C)CC)NC(=O)[C@H](CCCNC(=N)N)NC(=O)[C@H](Cc2c[nH]cn2)NC(=O)[C@H](C)NC(=O)CN(C)C(=O)[C@H](Cc2c[nH]c3ccccc23)NC(=O)[C@H](CC(=O)O)NC(=O)[C@H](CCC(N)=O)NC(=O)[C@H](Cc2cn(C)c3ccccc23)NC(=O)[C@H](C(C)C)NC1=O [Cp40-KKK, DTyr-Ile-[Cys-Val-Trp(Me)-Gln-Asp-Trp-Sar-Ala-His-Arg-Cys]-mlle-Lys-Lys-Lys—NH2]	> 73 days
mPEG(1k)-Cp40: N-terminus of Cp40 coupled to polydisperse PEG chain of 1 kDa via amide coupling	at least 14 days
CC[C@H](C)[C@H](NC(=O)[C@H](N)Cc1ccc(O)cc1)C(=O)N[C@H]1CSSC[C@@H](C(=O)N(C)[C@H](C(=O)N[C@@H](CCCCN)C(=O)N[C@@H](CCCCN)C(N)=O)[C@@H](C)CC)NC(=O)[C@H](CCCNC(=N)N)NC(=O)[C@H](Cc2c[nH]cn2)NC(=O)[C@H](C)NC(=O)CN(C)C(=O)[C@H](Cc2c[nH]c3ccccc23)NC(=O)[C@H](CC(=O)O)NC(=O)[C@H](CCC(N)=O)NC(=O)[C@H](Cc2cn(C)c3ccccc23)NC(=O)[C@H](C(C)C)NC1=O [Cp40-KK, DTyr-Ile-[Cys-Val-Trp(Me)-Gln-Asp-Trp-Sar-Ala-His-Arg-Cys]-mIle-Lys-Lys—NH2]	> 73 days
mPEG(3k)-Cp40: N-terminus of Cp40 coupled to polydisperse PEG chain of 3 kDa via amide coupling	at least 14 days
